Positions count from the first letter of the chain named. For part of these data: No signal at the amounts used counts as a negative. For part of these data: At least one verdict rests on a figure or table, not on a statement of the authors. For part of these data: Protein sequences can lack the tags named with them. For part of these data: The comparison behind a weaker result is the experiment's own reference, which may not be listed here. For part of these data: Construct, isoform or probe ends are uncertain for at least one entry.
Legend:
[1] = biological target: T1, SAFB2 RRM (404-485) (Homo sapiens) (UniProt Q14151); test: NMR titration; conditions: NMR: 20 mM BisTris, 150 mM NaCl, pH 6.5, 5% D2O, 298 K (RRM plus 2 mM TCEP), recombinant protein, residues 404-485
T1 sequence (looked up): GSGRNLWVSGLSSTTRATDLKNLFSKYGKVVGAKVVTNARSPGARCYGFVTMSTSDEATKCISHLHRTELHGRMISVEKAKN

[2] = biological target: SAFB2 SAP S31A (Homo sapiens) (UniProt Q14151); test: EMSA; conditions: up to 40 uM, only slightly impaired; EMSA: 25 mM sodium phosphate, 150 mM NaCl, 0.02% NaN3, pH 6.5, 10 mM MgCl2, 0.6 ug yeast tRNA, 0.1 pmol DNA in 20 uL; temperature not stated; recombinant protein; residues 21-70; protein details: N-terminal GAM left after TEV cleavage; label: 5'-6-FAM on fw strand
[3] = biological target: T2, SAFB2 SAP WT (21-70) (Homo sapiens) (UniProt Q14151); test: NMR titration; conditions: NMR: 20 mM BisTris, 150 mM NaCl, pH 6.5, 5% D2O, 298 K (RRM plus 2 mM TCEP), recombinant protein, residues 21-70
T2 sequence (looked up): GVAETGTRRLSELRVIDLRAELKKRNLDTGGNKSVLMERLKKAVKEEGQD

[4] = biological target: T2, SAFB2 SAP WT (21-70) (Homo sapiens); test: EMSA; conditions: 0-40 uM SAP, EMSA: 25 mM sodium phosphate, 150 mM NaCl, 0.02% NaN3, pH 6.5, 10 mM MgCl2, 0.6 ug yeast tRNA, 0.1 pmol DNA in 20 uL, temperature not stated, recombinant protein, residues 21-70
[5] = biological target: T3, SAFB2 SAP R45A (Homo sapiens) (UniProt Q14151); test: NMR titration; conditions: 6x DNA, minor CSPs, likely non-specific, protein unfolded; NMR: 20 mM BisTris, 150 mM NaCl, pH 6.5, 5% D2O, 298 K (RRM plus 2 mM TCEP); recombinant protein; residues 21-70; protein details: N-terminal GAM left after TEV cleavage
T3 sequence (looked up): T2 sequence (looked up) with R25A

[6] = biological target: SAFB2 SAP S31A (Homo sapiens) (UniProt Q14151); test: NMR titration; conditions: 8x DNA; NMR: 20 mM BisTris, 150 mM NaCl, pH 6.5, 5% D2O, 298 K (RRM plus 2 mM TCEP); recombinant protein; residues 21-70; protein details: N-terminal GAM left after TEV cleavage
[7] = exclusively binds dsDNA, label: 5'-6-FAM, single-stranded DNA

Sequence: CGGACU [En-]
- binding result ([1]; lower CSPs than A7 and C7): binds more weakly

Sequence: GCAATAAATACG (double strand) [dsAT13mer]
- binding result [2]: binds more weakly

Sequence: UUUUUUU [U7]
- binding result ([1]; least-preferred motif): binds more weakly

Sequence: CGCCCCCGCGCCCGCG (double strand) [dsGC16mer]
- binding result ([3]; same trajectories, lower maximum CSP than AT16mer): binds more weakly

Sequence: GCCCCCGCGCCCG [ssGC13mer]
- binding result [4, 7]: no binding

Sequence: UACACC [En+]
- binding result ([1]; lower CSPs than A7 and C7): binds more weakly

Sequence: GCCCCCGCGCCCG (double strand) [dsGC13mer]
- binding result ([4]; yeast tRNA, 10 mM MgCl2, slightly less preferred than AT, label: 5'-6-FAM on fw strand): binds

Sequence: GCGCACAATATAACGC [ssAT16mer]
- binding result ([1]; CSPs equal to A7/C7, single-stranded DNA): binds
- binding result ([3]; single-stranded DNA): no binding

Sequence: CAATATAAC (double strand) [dsAT9mer]
- binding result [5]: binds more weakly
- binding result [6]: binds more weakly

Sequence: GCAATAAATACG [ssAT13mer]
- binding result [4, 7]: no binding

From paper PMC9958909
